Results deposited as PubChem BioAssay AID1508588 (Peter MacCallum Cancer Centre, 2020)

- Screen: 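Knock-downs boosting vemurafenib effects on melanoma cell growth or lactate release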 (primary screen)
- Cells: human WM266.4 melanoma cells (BRAF V600 mutant)
- Reagent: siRNA pool against human genes, 40 nM
- Timing: 96 h from transfection to read-out
- Treatment: vemurafenib 300 nM (about IC25), added 48 h after transfection, for 48 h; comparison arm got DMSO vehicle only
- Read-out: 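Cell gain (DAPI nuclei at end minus before drug, mean of two replicates) and medium lactate by absorbance per cell, both as ratio to non-targeting siRNA, also grouped into fold-change classes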
- Reading the numbers: cell gain with vemurafenib: higher = more cell gain than with non-targeting siRNA; lactate per cell with vemurafenib: higher = more lactate made per cell
- Rule for the call: 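Enhancement is called by pairing each knock-down's vehicle-arm and drug-arm fold-change classes for viability or glycolysis; which class combinations qualify is not given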
- Meaning of the calls: active = enhances vemurafenib effect; inactive = no enhancement seen
Shown is one part, drawn at random, of about 18,000 reagents tested. Over the whole deposit, 790 (4.4%) were called active. 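Calls rest on a combination of fold-change classes in drug and vehicle arms, not all shown here.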 Reagents against one gene are numbered here. Reagent sequences are not shown.

Gene,pool no.,cell gain with vemurafenib,lactate per cell with vemurafenib,Call
ADPRH (GeneID 141),1,0.82,1.18,inactive
FAM153CP (GeneID 653316),1,0.16,0.53,inactive
DDX21 (GeneID 9188),1,0.53,1.37,inactive
LRRC3 (GeneID 81543),1,0.61,0.4,inactive
PTBP3 (GeneID 9991),1,0.7,0.79,inactive
ST8SIA1 (GeneID 6489),1,0.53,0.94,inactive
LRRTM4 (GeneID 80059),1,0.74,0.54,inactive
TBC1D10C (GeneID 374403),1,0.69,1.17,inactive
RETNLB (GeneID 84666),1,0.2,1.25,inactive
KCNC1 (GeneID 3746),1,0.88,0.6,inactive
DEFB135 (GeneID 613209),1,0.64,0.96,inactive
GDF10 (GeneID 2662),1,0.77,0.73,inactive
ABCD2 (GeneID 225),1,0.46,0.58,inactive
TMEM161A (GeneID 54929),1,1.04,0.7,inactive
ERCC6L2 (GeneID 375748),1,0.43,0.84,inactive
ERCC6L2 (GeneID 375748),2,0.36,0.81,inactive
PRKCE (GeneID 5581),1,0.5,0.72,inactive
ZNF618 (GeneID 114991),1,0.7,1.36,inactive
SLC25A26 (GeneID 115286),1,0.58,1.02,inactive
SHMT2 (GeneID 6472),1,1.13,1.02,inactive
UVSSA (GeneID 57654),1,0.62,0.78,inactive
NOPCHAP1 (GeneID 121053),1,0.95,0.44,inactive
BLOC1S6 (GeneID 26258),1,0.13,3.54,inactive
NCKAP1 (GeneID 10787),1,0.77,1.52,inactive
POMGNT1 (GeneID 55624),1,0.54,0.64,inactive
TSLIG3C (GeneID 147965),1,0.14,0.88,active
SULT1C2 (GeneID 6819),1,0.34,1.06,inactive
OR5L1 (GeneID 219437),1,0.28,0.66,inactive
TTF1 (GeneID 7270),1,0.58,0.99,inactive
SLC25A42 (GeneID 284439),1,0.61,1.27,inactive
CCDC134 (GeneID 79879),1,0.2,1.2,inactive
IL36R (GeneID 8808),1,0.54,0.56,inactive
RPAIN (GeneID 84268),1,0.8,0.77,inactive
NFKB1 (GeneID 4790),1,0.3,1.32,inactive
